Results from publication doi:10.1101/2023.03.05.531181.
Substitutions are numbered along the chain they refer to. These are yes or no findings as the source states them, for the method shown. For some assays here: Binding calls can cover weak binding; strength is not graded here. For some assays here: In cells and extracts the contact can be indirect. For some assays here: Sequences can lack the tags named with a protein.

Sequences of proteins named here, by UniProt entry; tags and fusion partners are left off. A change or cut given only in a name is not applied to a line headed by its entry.
UniProt P67775: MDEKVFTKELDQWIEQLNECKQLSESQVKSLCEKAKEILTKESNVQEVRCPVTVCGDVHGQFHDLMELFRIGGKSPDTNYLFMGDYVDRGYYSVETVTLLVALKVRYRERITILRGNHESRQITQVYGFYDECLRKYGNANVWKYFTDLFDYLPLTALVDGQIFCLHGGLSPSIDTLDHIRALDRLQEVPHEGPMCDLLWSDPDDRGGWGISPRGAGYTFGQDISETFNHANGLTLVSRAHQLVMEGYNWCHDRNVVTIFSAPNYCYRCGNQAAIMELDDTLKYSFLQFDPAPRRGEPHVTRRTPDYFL
UniProt P63330: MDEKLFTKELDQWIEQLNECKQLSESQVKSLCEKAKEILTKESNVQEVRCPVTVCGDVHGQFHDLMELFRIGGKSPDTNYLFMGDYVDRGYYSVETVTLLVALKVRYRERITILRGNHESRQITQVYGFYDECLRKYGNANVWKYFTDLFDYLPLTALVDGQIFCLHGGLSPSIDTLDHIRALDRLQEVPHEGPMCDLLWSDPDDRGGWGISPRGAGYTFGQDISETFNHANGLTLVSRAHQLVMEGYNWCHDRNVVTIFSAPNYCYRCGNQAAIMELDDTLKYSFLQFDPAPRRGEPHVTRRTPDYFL

How the values were obtained:
V5-FBP1^L329P (human) = target: T1, V5-FBP1^L329P (human) (UniProt P09467); assay: co-IP
T1 sequence: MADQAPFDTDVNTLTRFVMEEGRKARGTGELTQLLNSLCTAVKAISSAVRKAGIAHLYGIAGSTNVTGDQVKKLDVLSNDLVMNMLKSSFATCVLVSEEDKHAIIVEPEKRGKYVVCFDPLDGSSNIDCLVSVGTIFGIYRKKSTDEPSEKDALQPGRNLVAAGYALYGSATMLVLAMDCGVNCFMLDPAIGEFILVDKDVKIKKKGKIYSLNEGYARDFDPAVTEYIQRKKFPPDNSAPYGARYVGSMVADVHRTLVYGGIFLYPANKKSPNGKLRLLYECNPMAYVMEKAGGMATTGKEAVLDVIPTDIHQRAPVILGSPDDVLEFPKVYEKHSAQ

V5-FBP1 (human) = target: T2, V5-FBP1 (human) (UniProt P09467); assay: co-IP
T2 sequence: T1 sequence with P329L

V5-FBP1 ΔE7 (human) = V5-FBP1 ΔE7 (human) (UniProt P09467); assay: co-IP
V5-FBP1^E98A (human) = target: T3, V5-FBP1^E98A (human) (UniProt P09467); assay: co-IP
T3 sequence: T1 sequence with E98A, P329L

V5-FBP1 ΔE1 (human) = V5-FBP1 ΔE1 (human) (UniProt P09467); assay: co-IP
[1] = target: T4, FBP1 (mouse liver) (mouse (endogenous in liver)) (UniProt Q9QXD6); assay: co-IP
T4 sequence: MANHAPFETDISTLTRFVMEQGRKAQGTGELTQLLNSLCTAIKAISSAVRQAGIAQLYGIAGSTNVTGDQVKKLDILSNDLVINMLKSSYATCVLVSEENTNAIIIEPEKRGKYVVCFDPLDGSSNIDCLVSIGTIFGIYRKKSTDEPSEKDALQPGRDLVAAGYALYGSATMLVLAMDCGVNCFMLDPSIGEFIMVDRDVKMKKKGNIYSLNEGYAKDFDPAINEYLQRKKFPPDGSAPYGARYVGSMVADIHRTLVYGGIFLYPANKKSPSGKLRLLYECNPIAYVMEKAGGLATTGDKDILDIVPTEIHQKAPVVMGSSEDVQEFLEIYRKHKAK

[2] = target: T4, FBP1 (mouse liver) (mouse (endogenous in liver)); assay: proximity ligation
[3] = target: T4, FBP1 (mouse liver) (mouse (endogenous in liver)); assay: SEC

Row | Substance | binding (V5-FBP1^L329P (human)) | binding (V5-FBP1 (human)) | binding (V5-FBP1 ΔE7 (human)) | binding (V5-FBP1^E98A (human)) | binding (V5-FBP1 ΔE1 (human)) | binding [1] | binding [2] | binding [3]
1 | PP2A-C (Huh7 cells) (from UniProt P67775) (enzyme) | no binding | binds | no binding | binds | binds |  |  | 
2 | PP2A-C (mouse liver) (from UniProt P63330) (enzyme) |  |  |  |  |  | binds | binds | binds
